Assay results: paper PMC5381194, “On-chip in vitro cell-network pre-clinical cardiac toxicity using spatiotemporal human cardiomyocyte measurement on a chip” (Scientific Reports, 2014)

Sequences of proteins named here, by UniProt entry; tags and fusion partners are left off. A change or cut given only in a name is not applied to a line headed by its entry.
UniProt Q12809: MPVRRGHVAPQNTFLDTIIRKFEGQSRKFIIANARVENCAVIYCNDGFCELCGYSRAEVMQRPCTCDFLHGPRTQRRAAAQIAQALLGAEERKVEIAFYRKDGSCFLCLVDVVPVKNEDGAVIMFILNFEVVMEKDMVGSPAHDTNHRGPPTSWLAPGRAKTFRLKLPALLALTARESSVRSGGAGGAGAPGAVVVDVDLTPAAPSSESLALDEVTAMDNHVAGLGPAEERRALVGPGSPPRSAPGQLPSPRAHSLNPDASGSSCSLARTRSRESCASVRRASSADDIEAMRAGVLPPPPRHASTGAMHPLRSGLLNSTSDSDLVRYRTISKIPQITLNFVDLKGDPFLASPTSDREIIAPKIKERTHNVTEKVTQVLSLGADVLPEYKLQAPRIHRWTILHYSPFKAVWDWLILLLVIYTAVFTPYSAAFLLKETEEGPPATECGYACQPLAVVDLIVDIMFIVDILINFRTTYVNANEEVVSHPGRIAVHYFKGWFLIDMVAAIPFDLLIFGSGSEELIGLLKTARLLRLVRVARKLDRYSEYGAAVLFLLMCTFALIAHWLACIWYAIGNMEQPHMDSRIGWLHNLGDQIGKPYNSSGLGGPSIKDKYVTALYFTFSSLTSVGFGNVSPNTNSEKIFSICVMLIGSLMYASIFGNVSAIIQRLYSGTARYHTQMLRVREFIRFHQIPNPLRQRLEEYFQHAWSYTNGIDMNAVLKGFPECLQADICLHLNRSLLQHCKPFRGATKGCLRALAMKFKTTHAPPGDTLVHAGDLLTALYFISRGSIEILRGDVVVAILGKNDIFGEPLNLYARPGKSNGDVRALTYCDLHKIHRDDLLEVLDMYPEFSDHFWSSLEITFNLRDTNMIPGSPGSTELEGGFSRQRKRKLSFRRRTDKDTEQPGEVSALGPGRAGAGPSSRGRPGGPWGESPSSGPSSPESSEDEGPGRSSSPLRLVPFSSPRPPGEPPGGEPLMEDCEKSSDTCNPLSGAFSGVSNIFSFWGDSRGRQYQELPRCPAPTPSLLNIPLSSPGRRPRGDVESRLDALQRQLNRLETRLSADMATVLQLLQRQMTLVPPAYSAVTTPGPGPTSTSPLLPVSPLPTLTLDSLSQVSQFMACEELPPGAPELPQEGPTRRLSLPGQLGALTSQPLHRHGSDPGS

Legend:
[1] = test system: human embryonic stem cell-derived cardiomyocyte cluster (hES-CMC); assay: On-chip MEA field potential recording of hCM clusters (temporal FPD and STVFPD); settings: 1 μM (Ref. dose ca. 10^2 × CMAX), ratio against the control, mean ± S.E.
hERG = hERG (Homo sapiens, UniProt Q12809); settings: ref references and pharmaceutical attachments; cited from earlier work

- FPD (ratio) [1]: 1.07 ± 0.03 ratio
- STVFPD (ratio) [1]: 1.64 ± 0.28 ratio
SMILES: CC(C)(C)c1ccc(C(=O)CCCN2CCC(OC(c3ccccc3)c3ccccc3)CC2)cc1 [Ebastine]
- hERG inhibition (positive or negative risk) (hERG): (+)
